For 1 molecule, binding results are on record in article PMC12069319, “Transcriptional co-regulator OCA-B/Pou2af1 restricts Th2 differentiation”.

Sequences of proteins named here, by UniProt entry; tags and fusion partners are left off. A change or cut given only in a name is not applied to a line headed by its entry.
UniProt P14859: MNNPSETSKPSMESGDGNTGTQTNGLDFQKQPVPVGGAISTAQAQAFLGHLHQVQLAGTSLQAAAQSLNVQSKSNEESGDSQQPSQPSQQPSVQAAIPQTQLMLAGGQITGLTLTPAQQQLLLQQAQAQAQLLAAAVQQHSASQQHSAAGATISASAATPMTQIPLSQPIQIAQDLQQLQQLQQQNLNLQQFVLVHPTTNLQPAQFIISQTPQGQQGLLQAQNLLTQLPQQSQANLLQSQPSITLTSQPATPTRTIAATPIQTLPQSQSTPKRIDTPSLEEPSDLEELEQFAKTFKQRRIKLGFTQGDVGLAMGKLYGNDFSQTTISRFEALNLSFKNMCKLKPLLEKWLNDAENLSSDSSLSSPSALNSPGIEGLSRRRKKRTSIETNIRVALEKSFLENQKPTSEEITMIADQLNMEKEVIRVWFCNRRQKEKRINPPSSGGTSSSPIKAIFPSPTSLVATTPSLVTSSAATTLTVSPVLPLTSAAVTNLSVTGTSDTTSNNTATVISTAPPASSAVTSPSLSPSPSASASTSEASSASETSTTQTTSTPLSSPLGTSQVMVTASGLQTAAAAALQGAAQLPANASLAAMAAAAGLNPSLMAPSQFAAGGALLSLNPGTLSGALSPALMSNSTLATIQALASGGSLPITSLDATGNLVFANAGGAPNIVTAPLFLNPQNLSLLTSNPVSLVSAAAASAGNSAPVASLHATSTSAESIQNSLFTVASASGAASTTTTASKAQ

Assay [1] deals with GATA3, purified recombinant. In words: native gel or EMSA; supershift of protein bound to the Cy5-labeled RHS5_12 DNA probe (ATTAGCAT Oct1 site); 0.6X buffer D, poly-dI/dC, BSA, on ice 15 min, 6% native PAGE in 0.5X TBE; both purified.
The target of assay [2] is Oct1 DNA binding domain (human) (UniProt P14859). In words: native gel or EMSA; supershift of protein bound to the control Octamer-Cy5 DNA probe; 0.6X buffer D, poly-dI/dC, BSA, on ice 15 min, 6% native PAGE in 0.5X TBE; both purified. A general note: A gel shift assay detects complexes by their altered migration in electrophoresis.
The target of assay [3] is GATA3, purified recombinant. In words: native gel or EMSA; supershift of protein bound to the Cy5-labeled RHS6 DNA probe; 0.6X buffer D, poly-dI/dC, BSA, on ice 15 min, 6% native PAGE in 0.5X TBE; both purified.
Assay [4] concerns the target Oct1 DNA binding domain (human) (UniProt P14859). Described as above.

These are yes or no findings as the source states them, for the method shown. For some of these results: A result given as binding can be weak or reduced; the word gives no strength. Tags and fused reporters may be left off the sequences shown.

B1: OCA-B with C-terminal twinstrep and FLAG tags (protein, UniProt Q16633 1-256)
chain: MLWQKPTAPEQAPAPARPYQGVRVKEPVKELLRRKRGHASSGAAPAPTAVVLPHQPLATYTTVGPSCLDMEGSVSAVTEEAALCAGWLSQPTPATLQPLAPWTPYTEYVPHEAVSCPYSADMYVQPVCPSYTVVGPSSVLTYASPPLITNVTTRSSATPAVGPPLEGPEHQAPLTYFPWPQPLSTLPTSTLQYQPPAPALPGPQFVQLPISIPEPVLQDMEDPRRAASSLTIDKLLLEEEDSDAYALNHTLSVEGF
For B1, the binding result in assay [1] is “no binding”; in assay [2], “binds”; in assay [3], “no binding”; in assay [4], “binds”.
